Results are given in words; binding and its absence hold for the method and conditions named. In cells and extracts the contact can be indirect. Binding can be weak; no strength is given.

The target in this assay is V5-tagged Exo1 with the C-terminal regulatory region deleted. Description: co-IP; full-length and truncated V5-tagged Exo1 expressed in HEK-293 cells, immunoprecipitated with V5 antibody, blot probed for EEPD1; from 300 ug of total cell lysate.

B1: native EEPD1 (endogenous, HEK-293) (enzyme, UniProt Q7L9B9 1-569)
chain: MGSTLGCHRSIPRDPSDLSHSRKFSAACNFSNILVNQERLNINTATEEELMTLPGVTRAVARSIVEYREYIGGFKKVEDLALVSGVGATKLEQVKFEICVSSKGSSAQHSPSSLRRDLLAEQQPHHLATAVPLTPRVNINTATPAQLMSVRGLSEKMALSIVDFRREHGPFRSVEDLVRMDGINAAFLDRIRHQVFAERSRPPSTHTNGGLTFTAKPHPSPTSLSLQSEDLDLPPGGPTQIISTRPSVEAFGGTRDGRPVLRLATWNLQGCSVEKANNPGVREVVCMTLLENSIKLLAVQELLDREALEKFCTELNQPTLPNIRKWKGPRGCWKAVVAEKPSSQLQKGAGYAGFLWDAAAGMELRDAGSQESSPSNGHGKLAGPSPYLGRFKVGSHDLTLVNLHLAALTLLGSENPSKNHSDGHRLASFAQTLQETLKGEKDVIILGDFGQGPDSNDYDILRKEKFHHLIPAHTFTNISTKNPQGSKSLDNIWISKSLKKVFTGHWAVVREGLTNPWIPDNWSWGGVASEHCPVLAEFYTEKDWSKKDAPRNGSGVALERSEANIKHER
On to B1, for which the binding result is on record as “binds weakly”.

The values are drawn from paper PMC5314175.
